For one experiment, the target named is TSSC4-FLAG (human) (UniProt Q9Y5U2). Kind of experiment: affinity purification with mass spectrometry; SILAC-IP: HeLa Flp-In clones expressing GFP- or FLAG-tagged TSSC4 (medium label) against parental HeLa (light); GFP-Trap beads or M2 anti-FLAG agarose, 1.5 h at 4 °C; lysis buffer 20 mM HEPES pH 7.9, 100 mM KCl, 2 mM EDTA, 10% glycerol, 0.1% NP-40, 0.5% Triton X-100.

Sequences of proteins named here, by UniProt entry; tags and fusion partners are left off.
UniProt Q9Y5U2: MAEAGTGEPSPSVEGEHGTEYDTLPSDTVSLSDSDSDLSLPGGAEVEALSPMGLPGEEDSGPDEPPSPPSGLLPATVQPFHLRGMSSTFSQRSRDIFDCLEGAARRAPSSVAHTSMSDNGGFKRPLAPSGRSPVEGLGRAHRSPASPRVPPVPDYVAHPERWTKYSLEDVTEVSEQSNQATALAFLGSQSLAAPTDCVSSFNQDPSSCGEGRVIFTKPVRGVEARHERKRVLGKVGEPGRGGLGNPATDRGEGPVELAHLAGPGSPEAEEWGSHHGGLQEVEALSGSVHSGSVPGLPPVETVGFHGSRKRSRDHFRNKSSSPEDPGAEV
UniProt Q9Y265: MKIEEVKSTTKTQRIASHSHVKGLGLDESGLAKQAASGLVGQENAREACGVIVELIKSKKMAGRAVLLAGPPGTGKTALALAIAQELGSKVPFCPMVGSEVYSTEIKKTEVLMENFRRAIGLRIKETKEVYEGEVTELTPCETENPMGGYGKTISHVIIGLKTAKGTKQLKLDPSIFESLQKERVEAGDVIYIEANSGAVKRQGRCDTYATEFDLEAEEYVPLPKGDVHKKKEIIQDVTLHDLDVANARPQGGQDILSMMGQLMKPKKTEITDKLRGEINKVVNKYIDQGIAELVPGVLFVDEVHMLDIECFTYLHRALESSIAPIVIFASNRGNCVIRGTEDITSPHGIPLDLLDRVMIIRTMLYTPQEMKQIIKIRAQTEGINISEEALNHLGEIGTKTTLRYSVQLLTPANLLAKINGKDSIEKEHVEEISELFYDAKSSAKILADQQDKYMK

In the next experiment the target is TSSC4-GFP (human) (UniProt Q9Y5U2). The description is as above.

These are yes or no findings as the source states them, for the method shown. In cells and extracts the contact can be indirect. These calls come from enrichment with a bait or labelling near it, and not all partners need be listed.

For RUVBL1 (from UniProt Q9Y265 1-456), the binding entry in the experiment with TSSC4-FLAG (human) and with TSSC4-GFP (human) was “binds” in each case.

B1: EAPP (protein, UniProt Q56P03 1-285)
chain: MNRLPDDYDPYAVEEPSDEEPALSSSEDEVDVLLHGTPDQKRKLIRECLTGESESSSEDEFEKEMEAELNSTMKTMEDKLSSLGTGSSSGNGKVATAPTRYYDDIYFDSDSEDEDRAVQVTKKKKKKQHKIPTNDELLYDPEKDNRDQAWVDAQRRGYHGLGPQRSRQQQPVPNSDAVLNCPACMTTLCLDCQRHESYKTQYRAMFVMNCSINKEEVLRYKASENRKKRRVHKKMRSNREDAAEKAETDVEEIYHPVMCTECSTEVAVYDKDEVFHFFNVLASHS
On to B1, for which the binding result with TSSC4-FLAG (human) and with TSSC4-GFP (human) was “binds” throughout.

B2: ZNHIT2 (protein, UniProt Q9UHR6 1-403)
chain: MEPAGPCGFCPAGEVQPARYTCPRCNAPYCSLRCYRTHGTCAENFYRDQVLGELRGCSAPPSRLASALRRLRQQRETEDEPGEAGLSSGPAPGGLSGLWERLAPGEKAAFERLLSRGEAGRLLPPWRPWWWNRGAGPQLLEELDNAPGSDAAELELAPARTPPDSVKDASAAEPAAAERVLGDVPGACTPVVPTRIPAIVSLSRGPVSPLVRFQLPNVLFAYAHTLALYHGGDDALLSDFCATLLGVSGALGAQQVFASAEEALQAAAHVLEAGEHPPGPLGTRGAMHEVARILLGEGPTNQKGYTLAALGDLAQTLGRARKQAVAREERDHLYRARKKCQFLLAWTNENEAALTPLALDCARAHQAHAVVAEEVAALTGELERLWGGPVPPAPRTLIEELPS
Take B2: the binding entry in the experiment with TSSC4-FLAG (human) and with TSSC4-GFP (human) was “binds” in each case.

For the origin of these results see article PMC8206348.
